The values that follow come from PubChem BioAssay AID1471 (National Center for Advancing Translational Sciences (NCATS), 2008).

Several values for one entry are separate records, joined by “and”; a condition that tells them apart may be missing. Equal values may be shown once. About 310 (0.13%) of roughly 230,000 compounds were called active. Roughly 2% stayed inconclusive and do not appear here. Calls follow the shape of the dose curve; as a rule, active = well fitted activation curve with a large enough effect; inconclusive = small, poorly fitted or top-dose-only effect; inactive = no such curve, though single readings can be large or run the other way. The entries are a selection whose mix differs from that of the whole data set. Entries without a call were filed so in the source. A structure can be active in one record and inactive in another.
Potency is read from the fitted curve at half-maximal effect.

The nature of the experiment: qHTS Multiplex Assay to Identify Dual Action Probes in a Cell Model of Huntington: Cytoprotection (ATP). Also: nearly all actives have a fitted effect of over 45% in size.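 As to cytoprotection (ATP increase): toxic huntingtin expression switched on by the ecdysone agonist tebufenozide; % of control where 0% means no effect.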 As to conditions: PC12 HTT-Q103 induced, ATP luminescence, 40 h; cytoprotection (ATP increase): at 56.4 µM (top of the series) unless noted. Put shortly:
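Stable PC12 Q103-GFP cells in serum-supplemented, phenol red-free DMEM; induction by tebufenozide at 100 nM final; compound dose series; cell viability quantified luminescently from ATP.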
Background: Quantitative high-throughput screening tests each substance at several concentrations.
With `NC(=O)N/N=C/c1c(Sc2nnnn2-c2ccccc2)nc2ccccn2c1=O`, the Potency is active: 4.47 µM. In the case of `CC(=C(CCOP(=O)(O)O)SC(=O)c1ccccc1)N(C=O)Cc1cnc(C)nc1N`, the cytoprotection (ATP increase) is -65.3%.

In the case of `O=c1cc(CN2CCN(c3ccccc3F)CC2)c2cc3c(cc2o1)CCCC3`, the Potency was active: 1.12 µM. As for `C=C1C2CC[C@]3(CCC4[C@@]5(C)CCC[C@@]4(CN(CCO)C5)[C@@H]3C2)[C@@H]1O` (stereo partly specified), the cytoprotection (ATP increase) was -48.5%. Still for that read-out and setting: to `O=C(NCc1ccccc1)OCCN1CCN(Cc2ccccc2)CCC1=O` belongs -54%. As for `COc1ccccc1N1CCN(C(c2cccs2)C(C)NC(=O)c2cccnc2)CC1` (stereo unspecified), the Potency is active: 5.62 µM.

`COc1ccc(Nc2ncnc3c2cnn3-c2cccc(C)c2)cc1OC`: the cytoprotection (ATP increase) came out at 156% [at 10 µM].

In the case of `C=CCC(C)(O)c1ccccc1` (stereo unspecified), the cytoprotection (ATP increase) turned out to be 12.2%. As for `NC(=O)C1CCN(CCC(=O)Nc2ccc(Br)cc2)CC1`, the Potency is active: 0.112 µM. Take `C/C=C(/C(=C/C)c1ccc(O)cc1)c1ccc(O)cc1`: the cytoprotection (ATP increase) is -133%.

In the case of `Cc1nc2ccc(NC(=O)c3ccc(Cl)c([N+](=O)[O-])c3)cc2s1`, the cytoprotection (ATP increase) came out at 293% [at 10 µM]. Turning to `O=C(Nc1nc(NC(=O)c2ccco2)n(-c2ccccc2)n1)c1ccccc1`, the Potency was active: 3.98 µM. Consider `CC1=C(CO)C(=O)OC([C@@H](C)C2CC[C@H]3C4C[C@H]5O[C@]56[C@@H](O)C=CC(=O)[C@]6(C)C4CC[C@]23C)C1` (stereo partly specified), for which the Potency is active: 3.55 µM.

On to `CCCCCC(=O)/C=C/C=C\CCCCCCCC(=O)O`, for which the cytoprotection (ATP increase) was -56.6%.

As for `O=c1n(CCCN2CCN(c3cccc(Cl)c3)CC2)nc2ccccn12`, the cytoprotection (ATP increase) was -40.6%. As for `O=C(c1ccc(F)cc1)C(CN1CCOCC1)c1ccccc1` (stereo unspecified), the Potency was active: 31.6 µM. Turning to `CCOC(=O)CNC(=O)O[C@@H]1C(=O)c2cc(OC)ccc2O[C@H]1c1cccc(OC)c1`, the cytoprotection (ATP increase) was -41.6%. For `COc1ccc(-c2c(C)cc3oc(=O)cc(-c4ccccc4)c3c2C)cc1C=O`, the cytoprotection (ATP increase) turned out to be 71.8%.

In the case of `CCN(CC)S(=O)(=O)c1ccc(F)c(C(=O)NCCC(C)C)c1`, the cytoprotection (ATP increase) amounted to 299% [at 10 µM]. On to `Cc1ccc(C2NCCS2)cc1` (stereo unspecified), for which the cytoprotection (ATP increase) amounted to 43.6%. The same measure, in the same setting: under `CCCCCCCC/C=C\CCCCCCCC(N)=O` stands -32.7%; under `O=C(/C=C/c1ccc(O)cc1)c1ccc(O)cc1O`, 31.3%. Turning to `Cc1cccc(C2=NN(c3ccccc3)[C@@H](C(=O)N3CCOC3=O)[C@@H]2c2ccc(Cl)cc2)c1`, the cytoprotection (ATP increase) is -105%. Take `Cc1ccc2[nH]c(O)c(N=NC(=O)CCc3ccccc3)c2c1Br`: the cytoprotection (ATP increase) was 319% [at 1.9 µM]. In the case of `C[C@@H]1CNCCN1S(=O)(=O)c1cccc2cnccc12`, the Potency was active: 12.6 µM. Turning to `Cc1sc2ncnc(OCC(=O)N3CCN(S(=O)(=O)c4ccccc4)CC3)c2c1C`, the cytoprotection (ATP increase) turned out to be 319% [at 10 µM].

`COc1cccc(-c2cc(=O)c3cc(NC(=O)c4ccccc4)ccc3[nH]2)c1`: the cytoprotection (ATP increase) was -177%. `CCCCC/C=C/C=C1/C(=O)C=C[C@@H]1C/C=C\CCCC(=O)O`: the cytoprotection (ATP increase) is 48.8% and -91.3%. With `COc1ccc(NC(=S)NCCc2ccc(S(N)(=O)=O)cc2)c(OC)c1`, the cytoprotection (ATP increase) was -15.9%.

`Nc1c2ccccc2nc2ccccc12`: the cytoprotection (ATP increase) was -272%.

Regarding `CCC[C@H](N[C@@H](C)C(=O)N1[C@@H]2CCCC[C@H]2C[C@H]1C(=O)O)C(=O)OCC`, the cytoprotection (ATP increase) stood at 31.1%. The same measure, in the same setting: under `COc1ccc2c(c1)O[C@H](c1ccc3c(c1)OCO3)[C@@H](OC(=O)NS(=O)(=O)c1ccc(C)cc1)C2=O` stands -35.5%. In the case of `CN(C(=O)c1cccs1)c1ccc(OCC(=O)Nc2ccc(C(=O)O)cc2)cc1`, the Potency was active: 0.891 µM. With `COc1ccccc1-c1ccc(C(=O)O)o1`, the cytoprotection (ATP increase) was -52% [at 96.6 µM]. Consider `O=C(CN1CCCCC1)N1CCCc2c1c(=O)oc1ccc(OCc3ccccc3)cc21`, for which the Potency was active: 3.16 µM. Take `CNC1C(O)C2OC3OC(C)CC(=O)[C@@]3(O)O[C@H]2[C@H](NC)C1O` (stereo partly specified): the cytoprotection (ATP increase) is -53%. Regarding `CC(C)C(=O)N(c1ccc2oc(=O)sc2c1)S(=O)(=O)c1cccs1`, the Potency was active: 12.6 µM. Consider `Cc1nnc2sc(SCc3ccc(Cl)cc3)nn2c1=O`, for which the cytoprotection (ATP increase) is 195% [at 10 µM]. Consider `Cc1cc2oc(=O)cc(-c3ccccc3)c2c(C)c1-c1ccoc1`, for which the cytoprotection (ATP increase) was -64.9%. Turning to `O=c1cc(-c2ccccc2)oc2cc(O)cc(O)c12`, the cytoprotection (ATP increase) is -93.8%. Still for that read-out and setting: to `O=C(CCCCCN1C(=O)c2cccc3cccc(c23)C1=O)NO` belongs -107%. For the compound `CC(C)(C)N1C(=O)[C@@H]2[C@H]3C(=CC[C@H]2C1=O)C(=O)[C@H]1O[C@H]1[C@H]3O`, the Potency was active: 5.62 µM. With `COC(=O)c1sccc1NC(=O)Cc1ccc(OC)cc1`, the cytoprotection (ATP increase) was 330% [at 10 µM]. Same read-out and setting: to `N#CC1=C(SCc2ccccc2)NC(=O)CC1c1ccccc1` (stereo unspecified) belongs 314% [at 10 µM]; to `Cn1cc(C=C2C(=O)CC(C)(C)CC2=O)c2ccccc21`, 94.2% [at 10 µM]. As to `COc1cc2oc(=O)cc(-c3cccc(-c4ccc(C(F)(F)F)cc4)c3)c2c(OC)c1OC`, the cytoprotection (ATP increase) is -0.225%.
